Laboratory results from patent publication US20260317364A1, “ACTIVE MACROLIDE ANTIBIOTIC COMPOUNDS AGAINST PATHOGENS” (priority 2023, published 2026).
“Also recorded” adds a separate entry of the source. For at least one compound, name, drawing or mass did not settle the structure.

Assays:
Format in all cases: cell-based
[1] = tested on: S. aureus subsp. aureus (ATCC BAA976) msr(A); assay: Broth microdilution MIC assay, S. aureus BAA976 msr(A)
[2] = tested on: S. aureus subsp. aureus (ATCC BAA977) iMLSB; assay: Broth microdilution MIC assay, S. aureus BAA977 iMLSB
S. aureus DSM20231 = assay: Broth microdilution MIC assay, S. aureus resistant strains versus reference strain DSM20231; conditions: BAA976 and BAA977 versus DSM20231

In the case of CCC1OC(=O)C(C)C(OC(=O)Cc2c(F)cc([N+](=O)[O-])cc2F)C(C)C(OC2OC(C)CC(N(C)C)C2O)C(C)(OC)CC(C)C(=O)C(C)C2NC(=O)OC12C (stereo not drawn) [Compound 40], the “activity against inducible macrolide-resistant S. aureus BAA976 msr(A) (in words)” value [1] is reported as “superior activity; also recorded: significant effect on the bioactivity”, the “activity against inducible macrolide-resistant S. aureus BAA977 iMLSB (in words)” value [2] is reported as “superior activity; also recorded: significant effect on the bioactivity” and the “activity against both resistant strains compared with non-resistant reference strain S. aureus DSM20231” value (S. aureus DSM20231) is reported as “indistinguishable activity”.
